Data taken from PubChem BioAssay AID493014 (National Center for Advancing Translational Sciences (NCATS), 2011).
The whole screen tested about 340,000 compounds, of which about 170 (0.05%) were called active. Inconclusive means that the source gave no clear call. Such entries were picked first, then a sample of the others. The call rests on the fitted dose curve; in most records, active means well fitted inhibition curve with a large enough effect in the signal ratio, with a control signal flat (not every such curve was filed as active); inconclusive means small, poorly fitted or top-dose-only effect, or effect the other way, or a change in a side signal; inactive means flat fitted curve, though single readings scatter; the % refers to the signal ratio. Potencies of inconclusive entries are doubtful fits and often do not repeat.

assay: qHTS Assay to Find Inhibitors of Chronic Active B-Cell Receptor Signaling; settings: ABC-DLBCL IkBa-CBG/CBR reporter, luminescence ratio (green luciferase fused to IkBa over red control in TMD8 lymphoma cells), 4 h; activity change, negative = inhibition: at 46.1 µM (top of the series);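 on activity change, negative = inhibition: plate controls were basal doxycycline-induced cells for no effect and cells given 10 µM MG132 for full effect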
Outline: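 TMD8 human ABC-DLBCL cells with doxycycline-inducible IκBα–green luciferase fusion and unfused red luciferase, in 0.5% FBS medium; compounds up to 46 uM, 4 h at 37C. Green/red luminescence ratio, filter-overlap corrected, fitted to concentration-response curves.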
Potency means the concentration at half of the fitted maximal effect.

Structure (SMILES)	activity change, negative = inhibition	Potency
CCN(CC(=O)Nc1ccc(OC)c(OC)c1)CC(=O)Nc1ccccc1C(F)(F)F	inactive: -12.1%	
COc1ccc(C(=O)NC(C)CCc2ccccc2)cc1 (configuration not stated)	inconclusive: 4.52%	
CCC(=NCc1ccco1)c1c(C(F)(F)F)[nH]n(-c2nc3ccccc3s2)c1=O		inconclusive: 16.4 µM [falling, partial curve]
COc1cc(N2CCCC2)c(OC)cc1/C=C1/NC(=S)NC1=O	inconclusive: -0.993%	
CC(C)OCCCNC(=O)CCC(=O)NNc1nc2ccccc2c2nc(-c3ccccc3)nn12	inconclusive: 7.22%	
CC(NC(=O)C1CC12CCC2)c1ccccc1 (configuration not stated)	inconclusive: 3.8%	
CC(C)(C)[C@@H]1COC(=O)[C@H](Cc2ccc(F)cc2)C/C=C\C[C@@H](CC(=O)N(CCO)Cc2ccccc2)C(=O)N1	inconclusive: -0.324%	
CN1CCN(C(=O)c2cc(-c3ccccc3)on2)CC1		inconclusive: 29.1 µM [falling, single point]
Cc1cc(/C=C2\SC(=O)NC2=O)c(C)n1-c1ccc(N(C)C)cc1	inconclusive: 1.85%	
O=C(CC1C(=O)NCCN1CC1CCCCC1)NCc1ccc(Cl)cc1 (configuration not stated)		inconclusive: 1.58 µM [falling, partial curve, poor fit]
COC(=O)c1cc(S(=O)(=O)Nc2cccc(-c3cnco3)c2)oc1C	inactive: 2.16%	
CO/N=C\CC(=O)Nc1ccc(Cl)cc1Cl	inactive: -10.5%	
O=C(NNc1ccccc1Br)C(O)(c1cccc(C(F)(F)F)c1)c1cccc(C(F)(F)F)c1	inconclusive: -0.642%	
COc1ccc(N2CCN(CCC(N)=O)CC2)cc1	inconclusive: -1.73%	
O=C(O)CN1C(=O)SC(Nc2ccc(C(=O)O)cc2)C1=O (configuration not stated)		inconclusive: 13 µM [falling, partial curve, poor fit]
CC1Cc2ccccc2N1C(=O)CSc1nnc(Cc2ccccc2)n1CCc1ccccc1 (configuration not stated)	inconclusive: 30.7%	
Cc1c(Cl)cccc1NC(=S)NN	inconclusive: -20.6%	
Cc1ccc(S(=O)(=O)NC(CN2CCOCC2)=NCCNS(=O)(=O)c2ccccc2)cc1	inconclusive: 6.62%	
COc1ccc(NC(=O)/C(Cl)=C(/Cl)S(=O)Cc2ccccc2Cl)cn1 (configuration not stated)	inconclusive: 14.6%	
CCOc1ccc(OCCNC(=O)c2cc(C3CC3)nc3c2cnn3C(C)C)cc1	inconclusive: 11.7%	
O=C(CCCOc1ccccc1)Nc1nccs1	inactive: 8.4%	

An excerpt of these results, with each value named:
CCN(CC(=O)Nc1ccc(OC)c(OC)c1)CC(=O)Nc1ccccc1C(F)(F)F
  activity change, negative = inhibition: inactive: -12.1%
O=C(CC1C(=O)NCCN1CC1CCCCC1)NCc1ccc(Cl)cc1 (configuration not stated)
  Potency: inconclusive: 1.58 µM [falling, partial curve, poor fit]
O=C(NNc1ccccc1Br)C(O)(c1cccc(C(F)(F)F)c1)c1cccc(C(F)(F)F)c1
  activity change, negative = inhibition: inconclusive: -0.642%
O=C(O)CN1C(=O)SC(Nc2ccc(C(=O)O)cc2)C1=O (configuration not stated)
  Potency: inconclusive: 13 µM [falling, partial curve, poor fit]

Later entries.

Structure (SMILES)	activity change, negative = inhibition	Potency
CCOC(=O)c1sc(NC(=O)c2ccccc2OC)nc1C		inconclusive: 3.66 µM [falling, partial curve, poor fit]
Cc1nc(SCC(=O)N2CCCC2=O)nc(C)c1C	inactive: 2.75%	
Cc1occc1-c1nnc(SCC(=O)Nc2ccccn2)o1	inconclusive: -0.731%	
COc1ccc(CNc2oc(COc3ccccc3)nc2C#N)cc1	inactive: -24.1%	
Cc1ccc(C(=O)OCC(=O)c2ccc(Cl)s2)s1	inconclusive: 5.95%	
O=C(COc1ccc(C(=O)c2ccc(F)cc2)cc1)Nc1cccc(S(=O)(=O)N2CCOCC2)c1	inconclusive: -18.5%	
Cc1ccc(Sc2ccc(CO)cc2[N+](=O)[O-])cc1	inactive: -1.8%	
O=C(c1cn(-c2ccccc2)nc1-c1ccccc1)N1CCOCC1	inconclusive: 3.42%	
Cc1ccccc1Nc1cc(C(=O)NCC2CCCO2)c2ccccc2n1 (configuration not stated)	inconclusive: 18.4%	
O=C1C(C=NCc2ccco2)=C(O)c2ccccc21	inconclusive: -22.3%	
CC1=C(C(=O)Nc2cccc(Cl)c2)C2(CCCCCC2)OC1=O	inactive: -8.63%	
COc1ccc(-c2cc3nc(C)cc(NCCO)n3n2)cc1		inconclusive: 15.8 µM [falling, partial curve, poor fit]
O=C(CSc1nnnn1Cc1ccccc1)Nc1ccccc1	inconclusive: 2.1%	
COc1cc(NC(=O)Cn2nc(C(F)(F)F)c3c2CCCC3)cc(OC)c1OC		inconclusive: 14.6 µM [falling, partial curve, poor fit]
O=C(Cc1cccs1)NCc1ccc(F)cc1	inactive: 20%	
O=C(O)C=C1CCN(c2ncc(C(F)(F)F)cc2Cl)CC1		inconclusive: 35.5 µM [falling, single point]
O=C(CN1C(=O)NC2(CCCCCC2)C1=O)N1CCC(Cc2ccccc2)CC1	inactive: 4.72%	
COc1cc(C(c2c(C)[nH][nH]c2=O)c2c(C)[nH][nH]c2=O)cc(OC)c1OC	inconclusive: 3.13%	
O=c1[nH]n(-c2ccccn2)c(=O)c2ccccc12	inconclusive: 14.3%	
O=C(c1sc2cc([N+](=O)[O-])ccc2c1Cl)N1CCCCC1	inconclusive: 7.74%	
O=C(O)CC(SCC(=O)Nc1ccccc1)C(=O)O (configuration not stated)	inconclusive: 4.41%	

Structure (SMILES)	activity change, negative = inhibition	Potency
Cn1nnnc1SCc1ccc(C(=O)Nc2ccccc2F)cc1		inconclusive: 20 µM [falling, single point]
Cc1ccnc(NC(=O)c2ccc(S(=O)(=O)N3CCCCC3)cc2)c1	inconclusive: 0.583%	
COc1cccc(C(=O)Nc2nc(-c3ccccc3)c(-c3ccccc3)o2)c1	inconclusive: -13.9%	
CCOC(=O)c1nnn(-c2nonc2N)c1-c1ccc(F)cc1	inconclusive: 17.2%	
COc1ccccc1NC(=O)CSc1nc(N)c(-c2ccccc2)c(=O)[nH]1		inconclusive: 17.8 µM [falling, partial curve]
COc1cccc(C(=O)C(C#N)=C(SC)SC)c1		inconclusive: 35.5 µM [falling, single point]
CNc1nc(NC#N)nc(SC)n1	inactive: 1.87%	
O=c1c2oc3ccccc3c2ncn1Cc1ccccc1F	inconclusive: 9.3%	
CC(=O)Nc1ccc(S(=O)(=O)N2CCC(c3nc4ccccc4[nH]3)CC2)cc1	inconclusive: 5.05%	
c1ccc(-c2ccc(OCCCNC3CCCC3)cc2)cc1		inconclusive: 25.1 µM [falling, single point]
O=C(c1cc(S(=O)(=O)N2CCOCC2)ccc1Cl)N1CCC(Cc2ccccc2)CC1	inconclusive: -4.33%	
CC(=O)Nc1nc2n(n1)C(c1ccc(Cl)cc1)C=C(C)N2 (configuration not stated)		inconclusive: 20.6 µM [falling, partial curve]
COc1ccc(OCC(=O)N/N=C(\C)c2ccc(-n3ccnc3)cc2)cc1	inconclusive: -0.273%	
CC(=O)Nc1cccc(C(=O)OCC(=O)Nc2nnc(-c3ccccc3)o2)c1	inconclusive: 0.769%	
O=C(O)CC(SCC(=O)Nc1ccc(Cl)c(S(=O)(=O)N2CCOCC2)c1)C(=O)O (configuration not stated)	inconclusive: -4.2%	
Cc1ccc(SCCC(=O)Nc2cccc(N(C)S(C)(=O)=O)c2)cc1	inconclusive: 4.99%	
COc1ccc(C)cc1S(=O)(=O)Nc1cccnc1	inconclusive: -2.71%	
CCSc1nnc(NC(=O)Cc2ccc(OC)c(OC)c2)s1	inactive: -19.3%	
COc1cc(/C=N/Nc2ccc(Cl)c(C(=O)O)c2)ccc1OC(=O)c1cccs1		inconclusive: 12.6 µM [falling, partial curve]
Cc1oc2cc(O)ccc2c(=O)c1Oc1ccc2ccccc2c1		inconclusive: 10 µM [falling, single point]
O=C(NCc1ccccc1Cl)c1ccccc1Oc1ccccc1	inconclusive: 11.4%	

Structure (SMILES)	activity change, negative = inhibition	Potency
O=C(CCc1nc2ccccc2c(=O)[nH]1)Nc1ccc(F)c([N+](=O)[O-])c1	inconclusive: -11.5%	
O=S1(=O)CCC(=Nc2ccc(Cl)cc2)c2ccsc21	inconclusive: 8.01%	
Cc1oc(-c2ccc(-c3ccccc3)cc2)nc1CN1CCN(CC(=O)N(C)C)CC1		inconclusive: 6.31 µM [falling, partial curve]
O=c1c2c(n3cnnc3n1-c1ccccc1)-c1ccccc1CC21CCCC1	inactive: 0.259%	
Cc1cc(N/N=C/c2ccc([N+](=O)[O-])o2)nc2ccccc12	inactive: 9.62%	
O=C(Nc1ccccc1C(=O)Nc1ccncc1)c1ccccc1		inconclusive: 22.4 µM [falling, single point]
CC(C)c1cc2cc3ccc(=O)oc3cc2o1	inconclusive: -3.44%	
COc1ccc2[nH]c3c(=O)n(/N=C/c4ccc(OC)c(CN5CCCC5)c4)c(C)nc3c2c1	inconclusive: 18.3%	
Cc1ccc(C(=O)N/N=C/c2cccc(OC(=O)/C=C/c3ccco3)c2)cn1		inconclusive: 10 µM [rising, partial curve, poor fit]
COc1cc2c(cc1OC)C(COc1ccccc1OC)N(C(=O)c1ccc(S(=O)(=O)N3CCCC3)cc1)CC2 (configuration not stated)	inactive: -0.214%	
O=C(Nc1nnc(-c2ccccn2)o1)c1cccc(Br)c1	inconclusive: 417%	
Nn1c(SCC(=O)Nc2ccc(N3CCOCC3)cc2)nnc1-c1cccc(F)c1	inconclusive: 10.5%	
COc1ccc(C(=O)NN/C(=N/S(=O)(=O)c2ccc(C)cc2)c2ccccc2)cc1		inconclusive: 35.5 µM [rising, single point]
COc1ccc(C(=O)NCC(=O)OCC(=O)Nc2ncc(Cl)cc2Cl)cc1[N+](=O)[O-]	inconclusive: 0.847%	
CCc1ccccc1NC(=O)C/C(C)=N/NC(=O)COc1ccccc1C	inconclusive: -18.9%	
COc1ccc(Cl)cc1N(CC(=O)Nc1cccc(SC)c1)S(C)(=O)=O	inconclusive: 3.93%	
Cc1nc([N+](=O)[O-])c(Sc2nc3ccc([N+](=O)[O-])cc3[nH]2)n1Cc1ccccc1	inconclusive: 24.8%	
O=C(Nc1ccccc1)c1cnc2ccccc2n1	inconclusive: -2%	
O=C(C1CCCCC1)N(Cc1cccnc1)c1nc2c(F)cccc2s1		inconclusive: 0.447 µM [rising, full curve, poor fit]
